Strings that start with PEPTIDE1 are HELM notation: dots part the residues, brackets hold end groups and non-standard residues.
Test: peptide synthesis
Conditions: late stage modification step

PEPTIDE1{[FBz-AEE-Gly].F.G.[CysCAM].F.[dW].K.T.L.[GABA].[B21C7-EtNH]}$$$$V2.0
step yield: 66%
